Test results: publication PMC6063487
No constants are given. Whether binding was seen depends on the method and setting. Binding seen in cells or lysates may run through a third protein. Some results given as binding are weak or reduced against the parent protein; the word gives no strength. Where a sequence is shown, tags or fusion partners need not be part of it.

Biological target: T1, C-terminal c-Myc-tagged SEC11A (Origene) (UniProt Q9R0P6)
T1 sequence: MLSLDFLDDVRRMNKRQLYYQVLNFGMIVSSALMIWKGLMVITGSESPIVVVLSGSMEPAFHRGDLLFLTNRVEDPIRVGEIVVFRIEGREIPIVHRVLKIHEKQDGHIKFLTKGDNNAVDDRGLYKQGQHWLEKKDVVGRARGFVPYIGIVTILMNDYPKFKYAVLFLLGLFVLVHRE
Test: co-IP; HEK293T cells transfected with C-terminal c-Myc-tagged SEC11A and C-terminal FLAG-tagged mouse NNAT; lysates immunoprecipitated with anti-c-Myc agarose; Western blot with anti-c-Myc and anti-FLAG

binding: binds
B1: C-terminal FLAG-tagged mouse NNAT (pcDNA3.1) (protein, UniProt Q61979 1-81)
chain: MAAVAAASAELLIIGWYIFRVLLQVFLECCIYWVGFAFRNPPGTQPIARSEVFRYSLQKLAHTVSRTGRQVLGERRQRAPN
